Results published in article PMC11957706.

Sequences of proteins named here, by UniProt entry; tags and fusion partners are left off.
UniProt Q13114: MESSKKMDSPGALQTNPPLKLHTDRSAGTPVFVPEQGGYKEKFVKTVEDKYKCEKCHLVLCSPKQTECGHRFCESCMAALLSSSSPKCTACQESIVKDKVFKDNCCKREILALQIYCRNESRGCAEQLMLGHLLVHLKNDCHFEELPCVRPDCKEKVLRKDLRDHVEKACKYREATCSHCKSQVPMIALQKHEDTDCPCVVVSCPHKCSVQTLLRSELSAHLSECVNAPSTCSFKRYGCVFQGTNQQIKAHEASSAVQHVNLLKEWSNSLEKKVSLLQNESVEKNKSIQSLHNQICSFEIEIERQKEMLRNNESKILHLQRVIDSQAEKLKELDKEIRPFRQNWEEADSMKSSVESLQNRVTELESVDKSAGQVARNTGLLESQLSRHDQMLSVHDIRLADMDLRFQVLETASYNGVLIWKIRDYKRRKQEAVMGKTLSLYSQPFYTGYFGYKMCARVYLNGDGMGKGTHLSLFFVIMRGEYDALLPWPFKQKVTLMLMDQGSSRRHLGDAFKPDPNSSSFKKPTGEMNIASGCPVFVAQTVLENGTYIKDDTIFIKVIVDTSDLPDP

Target: Flag-tagged TRAF3 (TNF receptor-associated factor 3) expressed in U87MG cells (UniProt Q13114)
Test: affinity purification with mass spectrometry; Flag-TRAF3 transfected into U87MG cells; lysate incubated with anti-Flag-Tag antibody; precipitate resolved by SDS-PAGE, bands seen by silver staining identified by tandem MS/MS

binding: binds
B1: enoyl-CoA hydratase 1 (ECH1), endogenous in U87MG cells (protein, UniProt Q13011 34-328)
chain: TGSSAQEEASGVALGEAPDHSYESLRVTSAQKHVLHVQLNRPNKRNAMNKVFWREMVECFNKISRDADCRAVVISGAGKMFTAGIDLMDMASDILQPKGDDVARISWYLRDIITRYQETFNVIERCPKPVIAAVHGGCIGGGVDLVTACDIRYCAQDAFFQVKEVDVGLAADVGTLQRLPKVIGNQSLVNELAFTARKMMADEALGSGLVSRVFPDKEVMLDAALALAAEISSKSPVAVQSTKVNLLYSRDHSVAESLNYVASWNMSMLQTQDLVKSVQATTENKELKTVTFSKL

Results are given in words; binding and its absence hold for the method and conditions named. Binding seen in cells or lysates may run through a third protein. Here binding means that the protein was enriched with, or labelled near, the bait; the list need not be complete.
